The values that follow come from paper PMC12392934, “TCP19 regulates nitrogen‐dependent sheath blight susceptibility by modulating nitrogen uptake and signalling in rice”.

For test [1], the target named is TCP19 (Y2H fusion tested with DEP1) (rice (Oryza sativa)). Kind of test: two-hybrid; pairwise, pGAD424 (AD) and pGBT9 (BD) fusions in yeast strain PJ694A; growth on SD/-Leu-His-Trp.
The target of test [2] is IDD10-BD (rice (Oryza sativa)). The test is described as above.

These are yes or no findings as the source states them, for the method shown. For some assays here: Binding can be weak; no strength is given. Where a sequence is shown, tags or fusion partners need not be part of it.

B1: DEP1-AD (protein, UniProt Q67UU9 1-426)
chain: MGEEAVVMEAPRPKSPPRYPDLCGRRRMQLEVQILSREITFLKDELHFLEGAQPVSRSGCIKEINEFVGTKHDPLIPTKRRRHRSCRLFRWIGSKLCICISCLCYCCKCSPKCKRPRCLNCSCSSCCDEPCCKPNCSACCAGSCCSPDCCSCCKPNCSCCKTPSCCKPNCSCSCPSCSSCCDTSCCKPSCTCFNIFSCFKSLYSCFKIPSCFKSQCNCSSPNCCTCTLPSCSCKGCACPSCGCNGCGCPSCGCNGCGCPSCGCNGCGLPSCGCNGCGSCSCAQCKPDCGSCSTNCCSCKPSCNGCCGEQCCRCADCFSCSCPRCSSCFNIFKCSCAGCCSSLCKCPCTTQCFSCQSSCCKRQPSCCKCQSSCCEGQPSCCEGHCCSLPKPSCPECSCGCVWSCKNCTEGCRCPRCRNPCCLSGCLC
B1: the figures for the binding result in test [1] and in test [2] were “no binding” and “binds”, respectively.
